The list shows a part of the results.
target: OsWRKY34 (Oryza sativa, UniProt Q0JBA9 1-250); assay: protein-binding microarray (RPBM); PBS, 2% BSA, 51.3 ng/ul salmon testes DNA, 50 uM zinc acetate, 200 nM TF, 25 C, 1 h; high values mean tight binding; details: protein: recombinant; tags: N-terminal polyhistidine and DsRed monomer fusion (pET32a); label: CyDye5-dUTP incorporated in the synthesized complementary strand; 3' TTTTT single-stranded linker to array surface; dsDNA, one strand shown
Procedure, shortened: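 Using Ni–NTA, transcription factors fused N-terminally to polyhistidine and DsRed were purified after expression in E. coli BL21-CodonPlus. These were incubated at 200 nM with a blocked, double-stranded custom Agilent array for 1 h at 25 °C in a buffer containing 50 µM zinc acetate, and the array was washed. The binding signal is per-feature fluorescence intensity (arbitrary units) on an Axon 4000B scanner.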

Chains of the proteins cited; added tags and fusions are not shown.
UniProt Q0JBA9, entry or part of it: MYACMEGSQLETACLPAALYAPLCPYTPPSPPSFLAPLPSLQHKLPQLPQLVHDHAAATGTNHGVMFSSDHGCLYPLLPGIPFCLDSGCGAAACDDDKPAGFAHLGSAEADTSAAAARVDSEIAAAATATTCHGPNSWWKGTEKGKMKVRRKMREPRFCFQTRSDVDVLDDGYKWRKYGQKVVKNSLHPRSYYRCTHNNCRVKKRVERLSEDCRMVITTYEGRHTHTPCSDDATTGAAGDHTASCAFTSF

| Sequence | binding signal |
| --- | --- |
| TTCCTATCATTTGATTCATTGTTAAATATATTTTTATGTACGGAGTCACCTAGTGCAG | 8280 fluorescence intensity (a.u.) |
| GCGCCGCTTCTGATTGCTCCGCCTCGCGTTGATGCGCTGCCGGAGTCACCTAGTGCAG | 8530 fluorescence intensity (a.u.) |
| GCCAACCCGCCGCCCACGCGGGCCTTCCTCGCCGGCGCCGCGGAGTCACCTAGTGCAG | 8100 fluorescence intensity (a.u.) |
| ATGTCAACTGTAGTTTTTGTTTTCCTTTCTAGAGATTATTCGGAGTCACCTAGTGCAG | 11500 fluorescence intensity (a.u.) |
| CTCTGATAGATTGCGACCTTCTTGTTGTTTAACAACGTTACGGAGTCACCTAGTGCAG | 8060 fluorescence intensity (a.u.) |
| CTGTGCTTTCCATCCATCCACTCCCACGAACCGCACCTCACGGAGTCACCTAGTGCAG | 10700 fluorescence intensity (a.u.) |
| CTCACCGCCGATCGATCGAGACGACGCATCACCCATCTCACGGAGTCACCTAGTGCAG | 9080 fluorescence intensity (a.u.) |
| AAGATCATCACAATTCATCACTCACAACCACATCACATCCCGGAGTCACCTAGTGCAG | 8020 fluorescence intensity (a.u.) |
| TGTTTCTTTCGTGCAATTCTTGCGCCGCGCAGGCGTTTGGCGGAGTCACCTAGTGCAG | 8170 fluorescence intensity (a.u.) |
| CTGACATCTTCTCATCTTCTAGTTGTGTAATATTTTTGCACGGAGTCACCTAGTGCAG | 9500 fluorescence intensity (a.u.) |
| GTTTCCATTTATCTGTTCGCAGTCAGTTCCAAGAAGTACCCGGAGTCACCTAGTGCAG | 8340 fluorescence intensity (a.u.) |
| ACAAATTTGACTATTTTCAGTTAACCCTTACCCAACAATTCGGAGTCACCTAGTGCAG | 9700 fluorescence intensity (a.u.) |
| AATTCAACGCACGTCTCTTGTCCTGCACTTCTGCTATGCCCGGAGTCACCTAGTGCAG | 11000 fluorescence intensity (a.u.) |
| TCTTGTTGTATTTTCTTATATTCATGAATTGGCAACCACTCGGAGTCACCTAGTGCAG | 10600 fluorescence intensity (a.u.) |
| TTTCTCTTCTCCGGCCGCCGTGTTCGTCGCCGCCATCCCACGGAGTCACCTAGTGCAG | 12000 fluorescence intensity (a.u.) |
| ATACACACCACCGCACCGTATGAAGTAGGGACCACGACACCGGAGTCACCTAGTGCAG | 10000 fluorescence intensity (a.u.) |
| ACCGCACCGCCTTCGCACCACACCGGCACATCACCGCCAGCGGAGTCACCTAGTGCAG | 9530 fluorescence intensity (a.u.) |
| ACGTTGTTTTGGCATCCTATAGGGGCAATCTCGCATGTGTCGGAGTCACCTAGTGCAG | 9850 fluorescence intensity (a.u.) |
| AACAAACACCCGTGTGATTTTGCCCCGTTGTCTCACTGACCGGAGTCACCTAGTGCAG | 8940 fluorescence intensity (a.u.) |
| CTCCCCATCTCGGCCTCCTCGCCGCCACCATCCGCCTCTACGGAGTCACCTAGTGCAG | 9370 fluorescence intensity (a.u.) |
| GCAGTTTCACCGATAAATTTCTCGCAATCCCATTGACCGCCGGAGTCACCTAGTGCAG | 9160 fluorescence intensity (a.u.) |

| Sequence | binding signal |
| --- | --- |
| GCGGCGCCTCCTGTTTCGCCCCAACCCCGTCCTTCTCCTCCGGAGTCACCTAGTGCAG | 8540 fluorescence intensity (a.u.) |
| CCATCACGTCGACCTACGCTGTGCGGAGCTCATCGCCTTCCGGAGTCACCTAGTGCAG | 8570 fluorescence intensity (a.u.) |
| CATTGTTCTTCGTCTTTTGTGTCCTTGTTTGATTTGCTGCCGGAGTCACCTAGTGCAG | 9850 fluorescence intensity (a.u.) |
| AATTGTGTGTGCTTACCTTTTTCGTTTCCATTGATATCTACGGAGTCACCTAGTGCAG | 12400 fluorescence intensity (a.u.) |
| CTTATCTTGGCCACTTGGAATGTGCACTATGTTGATTTGTCGGAGTCACCTAGTGCAG | 8680 fluorescence intensity (a.u.) |
| TAACACGTCAGGACAACCACCATTAGCATCTGACAGCTACCGGAGTCACCTAGTGCAG | 8260 fluorescence intensity (a.u.) |
| GTCATCTTCTCTGCCCTTTGACGCGGTCTCGCTCGCGACCCGGAGTCACCTAGTGCAG | 8280 fluorescence intensity (a.u.) |
| CTAACACTTTCAACCTTTCCAATCGTACAATTGATCCAGCCGGAGTCACCTAGTGCAG | 8140 fluorescence intensity (a.u.) |
| AAGTTACTAGATGTAGTGCGATCAGCTGTTTTGCTCTGCCCGGAGTCACCTAGTGCAG | 8690 fluorescence intensity (a.u.) |
| CAGGGCGCTCCTCTCTTACCACCGGCCTTATCTTGCATGCCGGAGTCACCTAGTGCAG | 9710 fluorescence intensity (a.u.) |
| ACACCGTCTCCTTCTTCAAGGACCTCGGCGCCAACCTCGGCGGAGTCACCTAGTGCAG | 8610 fluorescence intensity (a.u.) |
| CGTTTGACCAGATGTTGGAAGGGGTTTTCGGACACGAATGCGGAGTCACCTAGTGCAG | 8060 fluorescence intensity (a.u.) |
| GTCGGCCCGCTGGTTTGCTTTCCTCCATCGCTTCACGTAACGGAGTCACCTAGTGCAG | 8420 fluorescence intensity (a.u.) |
| CTGTATGTCTTGCATTGTGTGACTGTCTGTGAAGTTGGGACGGAGTCACCTAGTGCAG | 9320 fluorescence intensity (a.u.) |
| GCGGTGGAGGCGGAAGGGGTGGGATTAGGCTGTGGCGCGGCGGAGTCACCTAGTGCAG | 14000 fluorescence intensity (a.u.) |
| ATGAGGTGACGAAACACTTTACTTTTTTTACTACTTTAGACGGAGTCACCTAGTGCAG | 8080 fluorescence intensity (a.u.) |
| CCGCGATGGTTTGTTTGCCACTATTTTATGGCTTGGTTTTCGGAGTCACCTAGTGCAG | 11800 fluorescence intensity (a.u.) |
| GTTGCAAGTATCACACCAAGTATCATTTTGCCCTAGTGGACGGAGTCACCTAGTGCAG | 8370 fluorescence intensity (a.u.) |
| GGCAAAATTACACTGTATTACAGACCGTTAGTAACGTACACGGAGTCACCTAGTGCAG | 8460 fluorescence intensity (a.u.) |
| ACACTCACACGAACGACTGACTTTTGTAGCCACACCACCTCGGAGTCACCTAGTGCAG | 9430 fluorescence intensity (a.u.) |
| GGGTTCCGTCCATTCCGCGCCGTTAAATGCATGTTCATTCCGGAGTCACCTAGTGCAG | 10800 fluorescence intensity (a.u.) |

Part of the list above in another layout.
Sequence,binding signal
AATTGTGTGTGCTTACCTTTTTCGTTTCCATTGATATCTACGGAGTCACCTAGTGCAG,12400 fluorescence intensity (a.u.)
CTTATCTTGGCCACTTGGAATGTGCACTATGTTGATTTGTCGGAGTCACCTAGTGCAG,8680 fluorescence intensity (a.u.)
TAACACGTCAGGACAACCACCATTAGCATCTGACAGCTACCGGAGTCACCTAGTGCAG,8260 fluorescence intensity (a.u.)
GTCATCTTCTCTGCCCTTTGACGCGGTCTCGCTCGCGACCCGGAGTCACCTAGTGCAG,8280 fluorescence intensity (a.u.)
CTAACACTTTCAACCTTTCCAATCGTACAATTGATCCAGCCGGAGTCACCTAGTGCAG,8140 fluorescence intensity (a.u.)
AAGTTACTAGATGTAGTGCGATCAGCTGTTTTGCTCTGCCCGGAGTCACCTAGTGCAG,8690 fluorescence intensity (a.u.)
ACACCGTCTCCTTCTTCAAGGACCTCGGCGCCAACCTCGGCGGAGTCACCTAGTGCAG,8610 fluorescence intensity (a.u.)
GTCGGCCCGCTGGTTTGCTTTCCTCCATCGCTTCACGTAACGGAGTCACCTAGTGCAG,8420 fluorescence intensity (a.u.)

— PMC7819943, “Rice protein-binding microarrays: a tool to detect cis-acting elements near promoter regions in rice”
